Construct, isoform or probe ends are uncertain for at least one entry. For part of these data: Negatives hold for the conditions tested.
How the values were obtained:
[1] = test system: GST-HpWRKY3-C (Hylocereus (pitaya)); test: competition with a labelled probe; conditions: EMSA: binding buffer (composition and pH not stated), 25 min at 30 C, 6% native PAGE, LightShift chemiluminescent kit, recombinant protein, protein details: GST (N-terminal, pGEX), label: none (competitor)
[2] = test system: GST-HpWRKY3-C (Hylocereus (pitaya)); test: EMSA; conditions: EMSA: binding buffer (composition and pH not stated), 25 min at 30 C, 6% native PAGE, LightShift chemiluminescent kit; recombinant protein; protein details: GST (N-terminal, pGEX); label: 5' biotin

“ACAAAAAAAAACCCTAAAATTTTAATTGGGGGCAATTTGGTCATTTG (double strand) [HpINV2 promoter W-box mutant probe]”: no binding ([1]; excess over biotin-labeled HpINV2 probe).
“ACAAGGTCAAACCCTAAAATTTTAATTGGGGGCAATTTGGTCATTTG (double strand) [HpINV2 promoter W-box probe]”: binds [2].
“ACAAGGTCAAACCCTAAAATTTTAATTGGGGGCAATTTGGTCATTTG (double strand) [HpINV2 promoter unlabeled probe]”: binds ([1]; excess over biotin-labeled HpINV2 probe, dose-dependent).
“GCACTGTGTTTATGATAAAAAAAACGTTAAAAAAAGCCAAAAATTTGAATTTT (double strand) [HpSuSy1 promoter W-box mutant probe]”: no binding ([1]; excess over biotin-labeled HpSuSy1 probe).
“GCACTGTGTTTATGATAATTGACCCGTTATTGACTGCCAAAAATTTGAATTTT (double strand) [HpSuSy1 promoter W-box probe]”: binds [2].
“GCACTGTGTTTATGATAATTGACCCGTTATTGACTGCCAAAAATTTGAATTTT (double strand) [HpSuSy1 promoter unlabeled probe]”: binds ([1]; excess over biotin-labeled HpSuSy1 probe, dose-dependent).

From publication PMC6514986
